Laboratory results published in US8722690B2, “Mesoionic pesticides” (E I du Pont de Nemours and Company, priority 2009, dated 2014).
Counter-ions that a name gives are not always drawn. Some of these results come from one statement about several compounds together. For at least one compound, name, drawing or mass did not settle the structure.

Key:
[1] = tested on: diamondback moth (Plutella xylostella); assay: Test A: control of diamondback moth on radish plant, foliar spray; format: in vivo; conditions: 6 days, very good to excellent levels of control efficacy
[2] = tested on: fall armyworm (Spodoptera frugiperda); assay: Test B: control of fall armyworm on maize plant, foliar spray; format: in vivo; conditions: very good to excellent levels of control efficacy

Compound | control efficacy: feeding damage (40% or less feeding damage and/or 100% mortality) ([1]; sprayed at 10 ppm) [%] | control efficacy: feeding damage (40% or less feeding damage and/or 100% mortality) ([1]; sprayed at 50 ppm) [%] | control efficacy: feeding damage (40% or less feeding damage and/or 100% mortality) ([2]; sprayed at 10 ppm) [%] | control efficacy: feeding damage (40% or less feeding damage and/or 100% mortality) ([2]; sprayed at 50 ppm) [%]
O=c1c(-c2cccc(C(F)(F)F)c2)c([O-])[n+](Cc2cnc(Cl)s2)c2c(Br)cccn12 [Compound 18, 9-bromo-1-[(2-chloro-5-thiazolyl)methyl]-2-hydroxy-4-oxo-3-[3-(trifluoromethyl)phenyl]-4H-pyrido[1,2-a]pyrimidinium inner salt] | ≤ 40 | ≤ 40 | ≤ 40 | ≤ 40
O=c1c(-c2cccc(Br)c2)c([O-])[n+](Cc2cnc(Cl)s2)c2c(Br)cccn12 [Compound 19, 9-bromo-3-(3-bromophenyl)-1-[(2-chloro-5-thiazolyl)methyl]-2-hydroxy-4-oxo-4H-pyrido[1,2-a]pyrimidinium inner salt] | – | ≤ 40 | – | ≤ 40
O=c1c(-c2cccc(C(F)(F)F)c2)c([O-])[n+](Cc2cnc(Cl)s2)c2cc(Br)ccn12 [Compound 28] | – | ≤ 40 | – | –
O=c1c(-c2cc(Cl)cc(OC(F)(F)F)c2)c([O-])[n+](Cc2cnc(Cl)s2)c2c(Br)cccn12 [Compound 33, 9-bromo-1-[(2-chloro-5-thiazolyl)methyl]-3-[3-chloro-5-(trifluoromethoxy)phenyl]-2-hydroxy-4-oxo-4H-pyrido[1,2-a]pyrimidinium inner salt] | ≤ 40 | ≤ 40 | ≤ 40 | ≤ 40
Cc1cccn2c(=O)c(-c3cccc(OC(F)(F)F)c3)c([O-])[n+](Cc3ccc(Cl)nc3)c12 [Compound 39] | ≤ 40 | ≤ 40 | – | –
Cc1cccc2n1c(=O)c(-c1cccc(OC(F)(F)F)c1)c([O-])[n+]2Cc1cnc(Cl)s1 [Compound 54] | ≤ 40 | ≤ 40 | – | ≤ 40
Cc1cccn2c(=O)c(-c3cccc(OC(F)(F)F)c3)c([O-])[n+](Cc3cncs3)c12 [Compound 70] | ≤ 40 | ≤ 40 | – | –
Cc1cccn2c(=O)c(-c3cccc(OC(F)(F)F)c3)c([O-])[n+](Cc3ccc(F)nc3)c12 [Compound 72] | ≤ 40 | ≤ 40 | – | –
Cc1cccn2c(=O)c(-c3cccc(C(F)(F)F)c3)c([O-])[n+](Cc3cncs3)c12 [Compound 73] | ≤ 40 | ≤ 40 | – | –
Cc1cccn2c(=O)c(-c3cc(OC(F)(F)F)cc(-c4ccc(Cl)nc4)c3)c([O-])[n+](Cc3cnc(Cl)s3)c12 [Compound 87, 3-[3-(6-chloro-3-pyridinyl)-5-(trifluoromethoxy)phenyl]-1-[(2-chloro-5-thiazolyl)methyl]-2-hydroxy-9-methyl-4-oxo-4H-pyrido[1,2-a]pyrimidinium inner salt] | – | ≤ 40 | – | ≤ 40
O=c1c(-c2ccccc2)c([O-])[n+](Cc2cnc(Cl)s2)c2c3ccccc3ccn12 [Compound 99, 1-[(2-chloro-5-thiazolyl)methyl]-2-hydroxy-4-oxo-3-phenyl-4H-pyrimido[2,1-a]isoquinolinium Inner Salt] | ≤ 40 | ≤ 40 | – | –
C#Cc1cccc(-c2c([O-])[n+](Cc3cnc(Cl)s3)c3c(C)cccn3c2=O)c1 [Compound 101] | ≤ 40 | ≤ 40 | ≤ 40 | ≤ 40
COc1c(F)cc(F)cc1-c1c([O-])[n+](Cc2cnc(Cl)s2)c2c(C)cccn2c1=O [Compound 108] | – | ≤ 40 | – | –
O=c1c(-c2ccccc2)c([O-])[n+](Cc2cnc(Cl)s2)c2c(Cl)cccn12 [Compound 185] | ≤ 40 | – | – | –
O=c1c(-c2ccccc2)c([O-])[n+](Cc2cnc(Cl)s2)c2c(CF)cccn12 [Compound 216] | ≤ 40 | – | – | –
O=c1c(-c2cccc(C(F)(F)F)c2)c([O-])[n+](Cc2cnc(Cl)s2)c2c(CF)cccn12 [Compound 217] | ≤ 40 | ≤ 40 | – | –
Cc1cccn2c(=O)c(-c3cccc(Oc4ccc(C#N)cc4)c3)c([O-])[n+](Cc3cnc(Cl)s3)c12 [Compound 222] | – | ≤ 40 | – | –
Cc1cccn2c(=O)c(-c3ccc([N+](=O)[O-])cc3)c([O-])[n+](Cc3cnc(Cl)s3)c12 [Compound 237] | ≤ 40 | ≤ 40 | – | –
Cc1cccn2c(=O)c(-c3cccc(C(=O)c4ccc(Cl)cc4)c3)c([O-])[n+](Cc3cnc(Cl)s3)c12 [Compound 258] | – | ≤ 40 | – | –
CCCC(C)c1c([O-])[n+](Cc2cnc(Cl)s2)c2c(C)cccn2c1=O (stereo not shown) [Compound 283] | – | ≤ 40 | – | –
Cc1cccn2c(=O)c(-c3cccc(Sc4ccc(C(F)(F)F)cc4)c3)c([O-])[n+](Cc3cnc(Cl)s3)c12 [Compound 287] | ≤ 40 | ≤ 40 | – | –

Compound | control efficacy: feeding damage (40% or less feeding damage and/or 100% mortality) ([1]; sprayed at 10 ppm) [%] | control efficacy: feeding damage (40% or less feeding damage and/or 100% mortality) ([1]; sprayed at 50 ppm) [%] | control efficacy: feeding damage (40% or less feeding damage and/or 100% mortality) ([2]; sprayed at 10 ppm) [%] | control efficacy: feeding damage (40% or less feeding damage and/or 100% mortality) ([2]; sprayed at 50 ppm) [%]
CCCCCc1c([O-])[n+](Cc2cnc(Cl)s2)c2c(C)cccn2c1=O [Compound 293] | – | ≤ 40 | – | –
Cc1cccn2c(=O)c(-c3cc(Cl)cc(C#N)c3)c([O-])[n+](Cc3cnc(Cl)s3)c12 [Compound 298] | ≤ 40 | ≤ 40 | – | –
Cc1cccc2cccc(-c3c([O-])[n+](Cc4cnc(Cl)s4)c4c(C)cccn4c3=O)c12 [Compound 313] | – | – | ≤ 40 | ≤ 40
Cc1cccn2c(=O)c(-c3cncc(Br)c3)c([O-])[n+](Cc3cnc(Cl)s3)c12 [Compound 331] | ≤ 40 | – | – | –
COC(=O)c1cccc(-c2c([O-])[n+](Cc3cnc(Cl)s3)c3c(C)cccn3c2=O)c1 [Compound 339] | ≤ 40 | – | – | –
CC(=O)c1ccc(-c2c([O-])[n+](Cc3cnc(Cl)s3)c3c(C)cccn3c2=O)cc1 [Compound 397] | ≤ 40 | – | – | –
Cc1cccn2c(=O)c(-c3cccc(-c4ccc(C(F)(F)F)c(Cl)c4)c3)c([O-])[n+](Cc3cnc(Cl)s3)c12 [Compound 400] | ≤ 40 | – | – | –
Cc1cccn2c(=O)c(-c3cc(Cl)cc(-c4ccc(C(F)(F)F)cc4F)c3)c([O-])[n+](Cc3cnc(Cl)s3)c12 [Compound 410] | – | – | ≤ 40 | –
Cc1cccn2c(=O)c(-c3ccc(-c4ccc(C(F)(F)F)cc4Cl)cc3)c([O-])[n+](Cc3cnc(Cl)s3)c12 [Compound 413] | – | – | ≤ 40 | –
Cc1cccn2c(=O)c(-c3ccc(-c4cc(Cl)cc(C(F)(F)F)c4)cc3)c([O-])[n+](Cc3cnc(Cl)s3)c12 [Compound 416] | ≤ 40 | – | – | –
Cc1cccn2c(=O)c(-c3ccccc3-c3ccc(C(F)(F)F)cc3Cl)c([O-])[n+](Cc3cnc(Cl)s3)c12 [Compound 423] | ≤ 40 | – | – | –
COCCC[n+]1c([O-])c(-c2cccc(-c3ccc(C(F)(F)F)cc3Cl)c2)c(=O)n2cccc(C)c21 [Compound 445] | ≤ 40 | – | – | –
COc1ccc(C#N)cc1-c1c([O-])[n+](Cc2cnc(Cl)s2)c2c(C)cccn2c1=O [Compound 452] | ≤ 40 | – | – | –
Cc1cccn2c(=O)c(-c3cccc(OC(F)(F)F)c3)c([O-])[n+](CC3CCOC3)c12 (stereo not shown) [Compound 459] | ≤ 40 | – | – | –
Cc1cc(C[n+]2c([O-])c(-c3ccccc3F)c(=O)n3cccc(C)c32)on1 [Compound 469] | ≤ 40 | – | – | –
Cc1cc(C[n+]2c([O-])c(-c3cccc(-c4ccc(C(F)(F)F)cc4Cl)c3)c(=O)n3cccc(C)c32)on1 [Compound 470] | ≤ 40 | – | – | –
Cc1cccn2c(=O)c(-c3cc(Cl)cc(Cl)c3)c([O-])[n+](Cc3cncs3)c12 [Compound 476] | ≤ 40 | – | – | –
Cc1cccn2c(=O)c(-c3cccc(-c4ccc(C(F)(F)F)cc4Cl)c3)c([O-])[n+](Cc3cncs3)c12 [Compound 477] | ≤ 40 | – | – | –
COc1cccn2c(=O)c(-c3ccc(F)c(-c4ccc(C(F)(F)F)cc4Cl)c3)c([O-])[n+](Cc3cnc(Cl)s3)c12 [Compound 480] | – | – | ≤ 40 | –
Cc1cccn2c(=O)c(-c3ccc(Br)c(Cl)c3F)c([O-])[n+](Cc3cnc(Cl)s3)c12 [Compound 488] | ≤ 40 | – | – | –
